Results from US10899699B2, “Vinylogous phenethylamines as neurotransmitter releasers” (RESEARCH TRIANGLE INSTITUTE, priority 2016, dated 2021).
For at least one compound, name, drawing or mass did not settle the structure.

Sequences of proteins named here, by UniProt entry; tags and fusion partners are left off.
UniProt P28223, whole entry: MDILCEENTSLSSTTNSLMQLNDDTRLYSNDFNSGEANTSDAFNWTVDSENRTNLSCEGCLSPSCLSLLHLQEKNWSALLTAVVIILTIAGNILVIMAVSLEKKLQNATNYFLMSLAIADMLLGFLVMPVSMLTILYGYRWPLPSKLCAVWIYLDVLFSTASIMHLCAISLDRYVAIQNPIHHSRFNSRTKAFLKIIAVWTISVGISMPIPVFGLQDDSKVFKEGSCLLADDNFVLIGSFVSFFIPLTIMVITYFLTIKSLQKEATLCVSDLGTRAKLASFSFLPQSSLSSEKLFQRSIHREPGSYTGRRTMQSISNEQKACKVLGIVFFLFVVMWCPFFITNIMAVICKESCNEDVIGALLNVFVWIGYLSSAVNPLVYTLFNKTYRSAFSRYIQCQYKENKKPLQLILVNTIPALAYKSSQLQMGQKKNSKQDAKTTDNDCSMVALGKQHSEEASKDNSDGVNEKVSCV
UniProt P31652, whole entry: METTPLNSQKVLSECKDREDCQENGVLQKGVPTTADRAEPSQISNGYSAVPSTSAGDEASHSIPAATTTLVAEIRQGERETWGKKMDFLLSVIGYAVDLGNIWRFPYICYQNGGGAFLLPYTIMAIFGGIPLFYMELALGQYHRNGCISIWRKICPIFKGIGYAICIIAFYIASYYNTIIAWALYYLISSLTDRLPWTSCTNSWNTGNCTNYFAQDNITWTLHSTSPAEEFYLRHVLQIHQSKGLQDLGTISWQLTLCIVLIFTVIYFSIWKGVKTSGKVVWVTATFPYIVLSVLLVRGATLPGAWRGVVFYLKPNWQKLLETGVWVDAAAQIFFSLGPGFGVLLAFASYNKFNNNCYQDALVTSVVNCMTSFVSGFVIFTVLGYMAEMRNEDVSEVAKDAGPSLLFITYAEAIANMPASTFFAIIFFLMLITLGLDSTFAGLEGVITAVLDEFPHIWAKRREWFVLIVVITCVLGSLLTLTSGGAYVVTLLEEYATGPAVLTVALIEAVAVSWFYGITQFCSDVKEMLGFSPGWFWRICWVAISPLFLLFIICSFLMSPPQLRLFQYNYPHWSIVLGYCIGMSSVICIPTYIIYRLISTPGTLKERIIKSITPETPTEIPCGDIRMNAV
UniProt P23977, whole entry: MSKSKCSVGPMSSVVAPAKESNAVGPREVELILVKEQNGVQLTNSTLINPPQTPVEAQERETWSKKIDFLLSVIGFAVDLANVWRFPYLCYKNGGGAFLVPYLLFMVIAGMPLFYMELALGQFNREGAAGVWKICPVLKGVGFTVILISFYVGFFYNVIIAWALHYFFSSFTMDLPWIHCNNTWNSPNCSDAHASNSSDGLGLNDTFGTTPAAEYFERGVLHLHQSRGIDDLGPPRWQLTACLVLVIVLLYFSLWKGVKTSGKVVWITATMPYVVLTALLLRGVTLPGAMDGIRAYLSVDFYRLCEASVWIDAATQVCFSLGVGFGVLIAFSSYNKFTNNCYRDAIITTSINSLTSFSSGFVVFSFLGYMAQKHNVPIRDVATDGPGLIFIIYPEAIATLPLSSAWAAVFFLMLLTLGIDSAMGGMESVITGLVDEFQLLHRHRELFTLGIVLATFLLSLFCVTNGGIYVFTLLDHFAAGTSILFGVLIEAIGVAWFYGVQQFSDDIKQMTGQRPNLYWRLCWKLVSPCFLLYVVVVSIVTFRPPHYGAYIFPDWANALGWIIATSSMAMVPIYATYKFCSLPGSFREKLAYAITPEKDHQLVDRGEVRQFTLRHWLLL
UniProt P41595, whole entry: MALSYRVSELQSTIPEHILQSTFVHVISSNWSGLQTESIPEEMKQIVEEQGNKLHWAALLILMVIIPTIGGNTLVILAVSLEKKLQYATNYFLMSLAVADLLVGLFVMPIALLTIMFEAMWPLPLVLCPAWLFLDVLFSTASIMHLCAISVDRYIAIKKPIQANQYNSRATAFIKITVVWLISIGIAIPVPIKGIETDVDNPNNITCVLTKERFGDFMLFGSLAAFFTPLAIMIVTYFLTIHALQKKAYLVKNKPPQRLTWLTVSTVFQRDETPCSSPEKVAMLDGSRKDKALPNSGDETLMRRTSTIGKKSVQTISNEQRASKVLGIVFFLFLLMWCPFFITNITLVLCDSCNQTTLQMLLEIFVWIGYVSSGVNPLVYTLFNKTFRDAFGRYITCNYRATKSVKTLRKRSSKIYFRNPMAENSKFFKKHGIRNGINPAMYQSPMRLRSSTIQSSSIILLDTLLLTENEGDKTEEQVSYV

Legend:
[1] = tested on: extracellular DA and 5-HT in the frontal cortex; details: rats, 1-3 mg/kg Lv.; cited from earlier work
[2] = molecular target: T1, human 5-HT2A receptor (Homo sapiens, UniProt P28223); details: previous functional studies; cited from earlier work
T1 construct: expressed in transfected cells

[3] = molecular target: T2, 5-HT2C (Homo sapiens, UniProt P28335); details: cited from earlier work
T2 construct: expressed in transfected cells
T2 sequence (P28335 33-458): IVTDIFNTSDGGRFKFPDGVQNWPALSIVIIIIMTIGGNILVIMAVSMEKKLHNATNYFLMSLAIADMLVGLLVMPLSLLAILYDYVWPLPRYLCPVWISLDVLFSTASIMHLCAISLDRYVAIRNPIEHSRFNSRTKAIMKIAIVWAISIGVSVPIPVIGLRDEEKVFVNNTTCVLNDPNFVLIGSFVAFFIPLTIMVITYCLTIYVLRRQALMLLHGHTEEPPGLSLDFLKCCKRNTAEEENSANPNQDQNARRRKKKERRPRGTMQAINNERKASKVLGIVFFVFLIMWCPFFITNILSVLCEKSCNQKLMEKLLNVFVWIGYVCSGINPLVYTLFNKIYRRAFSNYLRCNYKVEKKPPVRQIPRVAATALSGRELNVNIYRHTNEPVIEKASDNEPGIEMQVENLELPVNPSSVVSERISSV

[4] = molecular target: T3, Serotonin Transporter (SERT) (Rattus norvegicus, UniProt P31652); test: SERT release assay, rat brain synaptosomes; type: biochemical
T3 construct: synaptosomes were prepared from whole brain minus striatum and cerebellum for the NET and SERT assays; from tissue; host or cells: rat whole brain minus striatum and cerebellum, synaptosomes
Procedure: (§1) BAT activity was measured using synaptosomes prepared from rat brain homogenates according to the protocol developed by Rothman and co-workers (Rothman, et al., Eur. J. Pharmacol. 2002, 447(1), 51). Compounds were first screened in uptake inhibition and release assays to determine the exact mode of drug action. […] Substrate reversal experiments were conducted to validate substrate activity. The analogs were also tested for agonist activity at the serotonin-2 receptor subtypes (5-HT2A, 5-HT2B, 5-HT2C) using in vitro calcium mobilization assays in transfected HEK293 cells as previously described. These receptors are associated with the pharmacology of abused drugs, as 5-HT2A agonists are thought to be hallucinogenic while […] are associated with valvular heart disease and pulmonary hypertension; activity at these receptors would be considered off-target liabilities. On the other hand, agonists at 5-HT2C may be beneficial as potential pharmacotherapies for drug abuse and appetite suppression. […]
(§2) For release assays, 9 nM [^3H]1-methyl-4-phenylpyridinium ([^3H]MPP+) was used as the radiolabeled substrate for DAT and NET, while 5 nM [^3H]5-HT was used as a substrate for SERT. […] Release was terminated by vacuum filtration and retained radioactivity was quantified as described for uptake inhibition. […]

[5] = cited from earlier work
[6] = molecular target: T4, Dopamine Transporter (DAT) (Rattus norvegicus, UniProt P23977); test: DAT release assay, rat brain synaptosomes; type: biochemical
T4 construct: Synaptosomes were prepared from rat striatum for the DAT assays; from tissue; host or cells: rat striatum synaptosomes
Procedure: as §1, §2

[7] = rats, compared to S(+)-amphetamine; cited from earlier work
[8] = molecular target: T5, 5-HT2B (Homo sapiens, UniProt P41595); details: previous functional studies; cited from earlier work
T5 construct: expressed in transfected cells

Question: For `CC(N)Cc1ccc2ccccc2c1` (centres unmarked) [compound 2], which “increase of extracellular 5-HT in the frontal cortex” value [1] is on record?
Answer: The value was 464%.

Question: What about the “increase of extracellular DA in the frontal cortex” value [1] of the same compound?
Answer: The value was 133%.

Question: And the “agonist type at 5-HT2A” value [2]?
Answer: The value was “full agonist”.

Question: What about the “5-HT2C EMAX” value ([3]; data from Rothman et al., Trends Pharmacol. Sci. 2006, listed as PAL-287) of the same compound?
Answer: The value was 20%.

Question: And the “agonist type at 5-HT2C” value ([3]; previous functional studies)?
Answer: The value was “partial agonist”.

Question: And the “potency for 5-HT release compared to NE release” value [4]?
Answer: The value was 3.3 fold.

Question: What about the cocaine self-administration ([5]; rhesus monkeys trained to self-administer cocaine) of the same compound?
Answer: The cocaine self-administration was “dose-dependent decrease in cocaine self-administration”.

Question: And the “cocaine- versus food-maintained responding” value ([5]; rhesus monkeys, 1.0 mg/kg/h)?
Answer: The value was “significantly decreases”.

Question: What about the “potency at releasing DA compared to NE” value [6] of the same compound?
Answer: The value was “almost equal”.

Question: And the motor stimulation [7]?
Answer: Its motor stimulation is “significantly less motor stimulation compared to S(+)-amphetamine”.

Question: And the “agonist type at 5-HT2B” value [8]?
Answer: The value was “full agonist”.
